Data published in paper PMC12713097, “ARL3 Enhances ERα Stability via USP10 Deubiquitination to Promote Endocrine Resistance and Drive Mitochondrial Metabolic Reprogramming in HR+ Breast Cancer” (Advanced Science, 2025).
No constants are given. Whether binding was seen depends on the method and setting. In cells and extracts the contact can be indirect. Some entries that bind do so weakly or less than the wild type.

Sequences of proteins named here, by UniProt entry; tags and fusion partners are left off. A change or cut given only in a name is not applied to a line headed by its entry. Residues count along the entry.
UniProt Q14694, residues 1-399: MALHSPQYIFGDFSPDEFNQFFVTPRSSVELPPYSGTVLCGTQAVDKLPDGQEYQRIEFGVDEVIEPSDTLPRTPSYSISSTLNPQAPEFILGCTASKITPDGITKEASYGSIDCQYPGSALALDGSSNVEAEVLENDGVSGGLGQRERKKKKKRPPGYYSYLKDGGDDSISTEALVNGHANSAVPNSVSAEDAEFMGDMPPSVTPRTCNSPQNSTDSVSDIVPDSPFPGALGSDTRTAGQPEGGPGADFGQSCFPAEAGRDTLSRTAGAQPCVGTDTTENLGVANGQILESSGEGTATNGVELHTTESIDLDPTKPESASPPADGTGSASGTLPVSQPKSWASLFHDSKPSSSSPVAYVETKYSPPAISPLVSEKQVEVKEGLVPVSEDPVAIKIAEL
UniProt P03372: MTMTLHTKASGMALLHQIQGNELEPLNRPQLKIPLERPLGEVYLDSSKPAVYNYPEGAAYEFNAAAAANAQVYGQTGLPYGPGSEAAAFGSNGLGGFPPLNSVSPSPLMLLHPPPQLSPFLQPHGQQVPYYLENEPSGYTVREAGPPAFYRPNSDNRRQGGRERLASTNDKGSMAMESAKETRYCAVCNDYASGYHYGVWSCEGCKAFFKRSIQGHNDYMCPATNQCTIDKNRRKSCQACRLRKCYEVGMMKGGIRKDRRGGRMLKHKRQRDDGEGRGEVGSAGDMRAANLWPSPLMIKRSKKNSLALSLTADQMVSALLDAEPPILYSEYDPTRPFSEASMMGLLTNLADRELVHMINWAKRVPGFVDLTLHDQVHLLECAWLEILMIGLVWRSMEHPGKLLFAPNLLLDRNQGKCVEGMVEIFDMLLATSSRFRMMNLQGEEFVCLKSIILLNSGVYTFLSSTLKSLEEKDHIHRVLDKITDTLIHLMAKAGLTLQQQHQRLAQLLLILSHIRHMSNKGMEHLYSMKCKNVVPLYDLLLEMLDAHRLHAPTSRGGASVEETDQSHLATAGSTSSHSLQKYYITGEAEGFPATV
UniProt P36405: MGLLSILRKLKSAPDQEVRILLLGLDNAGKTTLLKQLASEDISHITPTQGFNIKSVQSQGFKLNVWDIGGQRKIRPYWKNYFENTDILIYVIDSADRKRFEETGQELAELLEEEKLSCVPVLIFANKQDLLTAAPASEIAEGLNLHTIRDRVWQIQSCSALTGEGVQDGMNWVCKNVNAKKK

Assays:
[1] = target: USP10 N‐terminal fragment (1–399 amino acids) (UniProt Q14694); test: co-IP; indicated constructs transfected into HEK293T cells, 24 h; IP with anti-FLAG or anti-HA antibodies (magnetic beads); immunoblot
[2] = target: Estrogen receptor α (ERα), endogenous (human (endogenous in MCF7 and T47D)) (UniProt P03372); test: co-IP; endogenous proteins in MCF7 and T47D lysates; IP lysis buffer 20 mM Tris-HCl pH 7.5, 150 mM NaCl, 1% NP-40; 16 h at 4 °C; Protein A/G magnetic beads; washes with 500 mM NaCl, 0.1% Tween-20; immunoblot

| Substance | binding [1] | binding [2] |
| --- | --- | --- |
| ARL3, tagged construct expressed in HEK293T (from UniProt P36405 1-182) | binds | – |
| ADP‐ribosylation factor‐like protein 3 (ARL3), endogenous (from UniProt P36405 1-182) | – | binds |
